Where a chain is given by its changes, count along the chain named. This is one part of the list. For some assays here: At the low end of the ranking the order means little.
Tests used:
Settings in all cases: yeast three-hybrid, YBZ-1, SC-Leu-His + 0.5 mM 3-AT, 4 days
[1] = molecular target: T1, PUM1 PUF domain R1-RLV S863R + R864L + Q867V (Homo sapiens) (UniProt Q14671)
T1 sequence: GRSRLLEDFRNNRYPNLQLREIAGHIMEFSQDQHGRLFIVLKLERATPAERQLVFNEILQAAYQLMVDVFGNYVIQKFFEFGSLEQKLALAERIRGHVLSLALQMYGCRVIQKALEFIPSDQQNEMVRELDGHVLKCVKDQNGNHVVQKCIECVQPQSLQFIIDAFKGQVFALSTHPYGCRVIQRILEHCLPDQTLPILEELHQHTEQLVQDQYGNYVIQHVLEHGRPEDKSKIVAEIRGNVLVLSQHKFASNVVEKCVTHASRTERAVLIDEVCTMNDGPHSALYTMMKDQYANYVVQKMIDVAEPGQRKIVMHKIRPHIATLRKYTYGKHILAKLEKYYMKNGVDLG

[2] = molecular target: T2, PUM1 PUF domain R1-RMS S863R + R864M + Q867S (Homo sapiens) (UniProt Q14671)
T2 sequence: T1 sequence with L37M, V40S

[3] = molecular target: T3, PUM1 PUF domain R1-RNR S863R + R864N + Q867R (Homo sapiens) (UniProt Q14671)
T3 sequence: T1 sequence with L37N, V40R

[4] = molecular target: T4, PUM1 PUF domain R1-RRA S863R + Q867A (Homo sapiens) (UniProt Q14671)
T4 sequence: T1 sequence with L37R, V40A

[5] = molecular target: T5, PUM1 PUF domain R1-RRC S863R + Q867C (UniProt Q14671)
T5 sequence: T1 sequence with L37R, V40C

[6] = molecular target: T6, PUM1 PUF domain R1-RRI S863R + Q867I (Homo sapiens) (UniProt Q14671)
T6 sequence: T1 sequence with L37R, V40I

[7] = molecular target: T7, PUM1 PUF domain R1-RRM S863R + Q867M (Homo sapiens) (UniProt Q14671)
T7 sequence: T1 sequence with L37R, V40M

[8] = molecular target: T8, PUM1 PUF domain R1-RRR S863R + Q867R (Homo sapiens) (UniProt Q14671)
T8 sequence: T1 sequence with L37R, V40R

[9] = molecular target: T9, PUM1 PUF domain R1-RSV S863R + R864S + Q867V (Homo sapiens) (UniProt Q14671)
T9 sequence: T1 sequence with L37S

[10] = molecular target: T10, PUM1 PUF domain R1-RVV S863R + R864V + Q867V (Homo sapiens) (UniProt Q14671)
T10 sequence: T1 sequence with L37V

[11] = molecular target: T11, PUM1 PUF domain R1-SLR R864L + Q867R (Homo sapiens) (UniProt Q14671)
T11 sequence: T1 sequence with R36S, V40R

[12] = molecular target: T12, PUM1 PUF domain R1-SPR R864P + Q867R (Homo sapiens) (UniProt Q14671)
T12 sequence: T1 sequence with R36S, L37P, V40R

[13] = molecular target: T13, PUM1 PUF domain R1-SRR Q867R (Homo sapiens) (UniProt Q14671)
T13 sequence: T1 sequence with R36S, L37R, V40R

[14] = molecular target: T14, PUM1 PUF domain R1-SWR R864W + Q867R (Homo sapiens) (UniProt Q14671)
T14 sequence: T1 sequence with R36S, L37W, V40R

[15] = molecular target: T15, PUM1 PUF domain R1-TFE S863T + R864F + Q867E (UniProt Q14671)
T15 sequence: T1 sequence with R36T, L37F, V40E

[16] = molecular target: T16, PUM1 PUF domain R1-TGE S863T + R864G + Q867E (UniProt Q14671)
T16 sequence: T1 sequence with R36T, L37G, V40E

[17] = molecular target: T17, PUM1 PUF domain R1-RSE S863R + R864S + Q867E (Homo sapiens) (UniProt Q14671)
T17 sequence: T1 sequence with L37S, V40E

[18] = molecular target: T18, PUM1 PUF domain R1-RWD S863R + R864W + Q867D (UniProt Q14671)
T18 sequence: T1 sequence with L37W, V40D

[19] = molecular target: T19, PUM1 PUF domain R1-SFK R864F + Q867K (Homo sapiens) (UniProt Q14671)
T19 sequence: T1 sequence with R36S, L37F, V40K

[20] = molecular target: T20, PUM1 PUF domain R1-TFR S863T + R864F + Q867R (Homo sapiens) (UniProt Q14671)
T20 sequence: T1 sequence with R36T, L37F, V40R

GGCUAGAACUAGUGGAUCCCCCGGCGCCCGGCGGCUCGAGCCCGGGUAAGUGUAAAUGGUCUGCAUGCCGCCGGGCGCCAUGCCUGCAGGUCGACUCUAGAAAACAUG
binding signal (log2 enrichment (interaction score)) [1]: -0.73
binding signal (log2 enrichment (interaction score)) [2]: -0.8
binding signal (log2 enrichment (interaction score)) [3]: -1.08
binding signal (log2 enrichment (interaction score)) [4]: -0.33
binding signal (log2 enrichment (interaction score)) [5]: -3.18
binding signal (log2 enrichment (interaction score)) [6]: -1.19
binding signal (log2 enrichment (interaction score)) [7]: 0.89
binding signal (log2 enrichment (interaction score)) [8]: -1.03
binding signal (log2 enrichment (interaction score)) [9]: 0.74
binding signal (log2 enrichment (interaction score)) [10]: -0.29
binding signal (log2 enrichment (interaction score)) [11]: -0.87
binding signal (log2 enrichment (interaction score)) [12]: -1.35
binding signal (log2 enrichment (interaction score)) [13]: -1.7
binding signal (log2 enrichment (interaction score)) [14]: -0.23

GGCUAGAACUAGUGGAUCCCCCGGCGCCCGGCGGCUCGAGCCCGGGUAAGUGUAAAUCGUCUGCAUGCCGCCGGGCGCCAUGCCUGCAGGUCGACUCUAGAAAACAUG
binding signal (log2 enrichment (interaction score)) [15]: -3.34
binding signal (log2 enrichment (interaction score)) [16]: < -9.21

GGCUAGAACUAGUGGAUCCCCCGGCGCCCGGCGGCUCGAGCCCGGGUAAGUGUAAAUUGUCUGCAUGCCGCCGGGCGCCAUGCCUGCAGGUCGACUCUAGAAAACAUG
binding signal (log2 enrichment (interaction score)) [17]: -0.17
binding signal (log2 enrichment (interaction score)) [18]: -2.62
binding signal (log2 enrichment (interaction score)) [19]: 0.71
binding signal (log2 enrichment (interaction score)) [20]: -0.84

From article PMC8384837
